{"source": "PubChem BioAssay AID743121 (NCATS, 2013)", "test": "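Partners whose loss is lethal together with topoisomerase I blockade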 (primary screen)", "cell system": "MDA-MB-231 cells, a human breast cancer line", "reagent": "single siRNA against human genes, 20 nM siRNA (0.8 pmol per well)", "time to read-out": "120 h (drug added 48 h after transfection, read 72 h later)", "conditions": "camptothecin 20 nM (about EC30) for 72 h; vehicle 0.1% DMSO in parallel plates", "measurement": "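Cell viability by ATP luminescence (CellTiter-Glo) as % of non-targeting siRNA wells, and the log2 ratio of viability without drug over viability with camptothecin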", "reading the numbers": "log2 vehicle/camptothecin viability: higher = stronger sensitisation to camptothecin", "hit rule": "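Each gene scored by redundant siRNA activity (RSA) over its individual siRNA ratios; a gene is called active at p < 0.001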", "note": "Here is a random part of about 26,000 deposited reagents. Of all reagents, 167 (0.63%) got an active call. 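Calls are per gene from RSA p-values that are not deposited; an individual active-marked siRNA can sensitise only weakly.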 Entries without a mark were called inactive. Reagents against one gene are numbered here. Not all columns of the deposit are shown."}
{"target": "SCARA5 (GeneID 286133)", "reagent no.": 1, "log2 vehicle/camptothecin viability": -0.332}
{"target": "SCARA5 (GeneID 286133)", "reagent no.": 2, "log2 vehicle/camptothecin viability": 1.24}
{"target": "SCARA5 (GeneID 286133)", "reagent no.": 3, "log2 vehicle/camptothecin viability": 0.0137}
{"target": "SCARA5 (GeneID 286133)", "reagent no.": 4, "log2 vehicle/camptothecin viability": -0.334}
{"target": "ALOX12 (GeneID 239)", "reagent no.": 1, "log2 vehicle/camptothecin viability": 0.0318}
{"target": "ALOX12 (GeneID 239)", "reagent no.": 2, "log2 vehicle/camptothecin viability": 0.093}
{"target": "ALOX12 (GeneID 239)", "reagent no.": 3, "log2 vehicle/camptothecin viability": -0.235}
{"target": "ALOX12 (GeneID 239)", "reagent no.": 4, "log2 vehicle/camptothecin viability": -0.281}
{"target": "LCK (GeneID 3932)", "reagent no.": 1, "log2 vehicle/camptothecin viability": -0.2}
{"target": "LCK (GeneID 3932)", "reagent no.": 2, "log2 vehicle/camptothecin viability": -0.316}
{"target": "LCK (GeneID 3932)", "reagent no.": 3, "log2 vehicle/camptothecin viability": -0.186}
{"target": "LCK (GeneID 3932)", "reagent no.": 4, "log2 vehicle/camptothecin viability": -0.0964}
{"target": "RNF25 (GeneID 64320)", "reagent no.": 1, "log2 vehicle/camptothecin viability": -0.279}
{"target": "RNF25 (GeneID 64320)", "reagent no.": 2, "log2 vehicle/camptothecin viability": -0.235}
{"target": "RNF25 (GeneID 64320)", "reagent no.": 3, "log2 vehicle/camptothecin viability": 0.746}
{"target": "RNF25 (GeneID 64320)", "reagent no.": 4, "log2 vehicle/camptothecin viability": -0.11}

Records above whose target name starts with L or l (4):
{"target": "LCK (GeneID 3932)", "reagent no.": 1, "log2 vehicle/camptothecin viability": -0.2}
{"target": "LCK (GeneID 3932)", "reagent no.": 2, "log2 vehicle/camptothecin viability": -0.316}
{"target": "LCK (GeneID 3932)", "reagent no.": 3, "log2 vehicle/camptothecin viability": -0.186}
{"target": "LCK (GeneID 3932)", "reagent no.": 4, "log2 vehicle/camptothecin viability": -0.0964}

The list goes on:
{"target": "CLEC5A (GeneID 23601)", "reagent no.": 1, "log2 vehicle/camptothecin viability": -0.062}
{"target": "CLEC5A (GeneID 23601)", "reagent no.": 2, "log2 vehicle/camptothecin viability": -0.273}
{"target": "CLEC5A (GeneID 23601)", "reagent no.": 3, "log2 vehicle/camptothecin viability": 0.139}
{"target": "CLEC5A (GeneID 23601)", "reagent no.": 4, "log2 vehicle/camptothecin viability": -0.83}
{"target": "KCNJ15 (GeneID 3772)", "reagent no.": 1, "log2 vehicle/camptothecin viability": 0.0165}
{"target": "KCNJ15 (GeneID 3772)", "reagent no.": 2, "log2 vehicle/camptothecin viability": -0.436}
{"target": "KCNJ15 (GeneID 3772)", "reagent no.": 3, "log2 vehicle/camptothecin viability": -0.198}
{"target": "KCNJ15 (GeneID 3772)", "reagent no.": 4, "log2 vehicle/camptothecin viability": -0.107}
